According to patent publication US20230002496A1 (STAIDSON BEIJING BIOPHARMACEUTICALS, published 2023):
Numbering of substitutions follows the chain as printed. These are yes or no findings as the source states them, for the method shown. Some entries that bind do so weakly or less than the wild type. For some of these results: Sequences can lack the tags named with a protein.

T1: Bavih-GMRa (biotinylated Avi-10His-GMRa(ECD)) (human) (UniProt P15509)
T1 sequence (chain, biotin on the Avi tag (BirA ligase)): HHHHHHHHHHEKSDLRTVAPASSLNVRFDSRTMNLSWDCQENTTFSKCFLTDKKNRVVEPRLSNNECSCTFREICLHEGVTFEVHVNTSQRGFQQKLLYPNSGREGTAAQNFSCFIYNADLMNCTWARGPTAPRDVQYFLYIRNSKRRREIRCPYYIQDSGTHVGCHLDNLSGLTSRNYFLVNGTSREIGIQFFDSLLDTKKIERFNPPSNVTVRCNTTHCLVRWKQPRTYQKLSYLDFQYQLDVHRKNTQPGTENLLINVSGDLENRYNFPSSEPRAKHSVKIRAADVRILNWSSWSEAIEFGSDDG

T2: human GM-CSFRα-6His (human, UniProt P15509 23-320)
T2 construct: pTT5-GMRa-6his (ECD), made in 293F cells; also called GMRah; GMRa-6his(ECD)
T2 sequence: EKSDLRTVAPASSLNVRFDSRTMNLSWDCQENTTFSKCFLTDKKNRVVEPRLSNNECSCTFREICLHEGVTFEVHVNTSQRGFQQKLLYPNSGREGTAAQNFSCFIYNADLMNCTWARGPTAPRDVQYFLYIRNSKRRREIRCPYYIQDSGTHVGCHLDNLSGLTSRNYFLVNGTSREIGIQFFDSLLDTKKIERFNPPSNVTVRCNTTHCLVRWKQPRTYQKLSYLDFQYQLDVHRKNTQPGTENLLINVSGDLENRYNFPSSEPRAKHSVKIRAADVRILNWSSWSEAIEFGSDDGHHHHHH

B1: E36-IgG4 (antibody, V domains shown)
VH: QMQLVQSGAEVKKPGASVKVSCKVSGHTLTELSMHWVRQAPGKGLEWMGGFDPEDGETIYAQKFQGRVTMTGDTSTDTAYLELSSLRSEDTALYYCATGRYAFIDTAYGFDYWGQGTLVTVSS
VL: EIVMTQSPATLSLSPGERATLSCRASQSVSSYLAWYQQKPGQAPRLLIYGASSRATGIPDRFSGSGSGTDFTLTISRLEPEDFAVYYCQQYSNSPPTFGQGTKLEIK
B2: E88-IgG4 (antibody, V domains shown)
VH: B1 VH with A102C, F103H, I104K, T106G, A107C
VL: B1 VL with S92D, N93S, P96H
B3: E39-IgG4 (antibody, V domains shown)
VH: B1 VH with M34I, A102C, F103S, I104S, T106L, A107C
VL: B1 VL with S92D, P96H
B4: E61-IgG4 (antibody, V domains shown)
VH: B1 VH with H27Y, F103W, I104T, T106I
VL: B1 VL with S92D, P96S
B5: E108-IgG4 (antibody, V domains shown)
VH: B1 VH with M34I, A102T, F103E, I104L, D105Y, T106Q, A107N
VL: B1 VL with S92N, S94W
B6: T119-IgG4 (antibody, V domains shown)
VH: B1 VH with M34I, I59N, F64S, A102C, F103S, I104T, A107C
VL: B1 VL with S92N, S94W
notes: human IgG4, human kappa; parent antibody
B7: E87-IgG4 (antibody, V domains shown)
VH: B1 VH with H27Y, M34I, F64S, A102V, F103S, I104L, D105F, T106F, A107N
VL: B1 VL with S92N, S94W
notes: human IgG4, human kappa
B8: E35-IgG4 (antibody, V domains shown)
VH: B1 VH with H27Y, M34I, A102T, F103S, I104L, D105A, A107T
VL: B1 VL with S92D, S94W, P96Y
notes: human IgG4, human kappa; also called E35-IG4
B9: EII81 (antibody, IgG1, V domains shown)
VH: B1 VH with H27Y, M34I, A102T, F103S, I104L, D105A, T106A, A107T
VL: B1 VL with S92T, S94V, P96D
B10: E36-IgG1 (antibody, V domains shown)
VH: B1 VH
VL: B1 VL
B11: E200a-IgG4 (antibody, V domains shown)
VH: B1 VH with H27Y, S33P, A102T, F103I, D105T, A107N
VL: B1 VL with S92D, S94W
notes: human IgG4, human kappa

Molecular target: T1, Bavih-GMRa (biotinylated Avi-10His-GMRa(ECD)) (human)
Assay: competitive ELISA as in Example 1: GM-CSF coated, biotinylated GM-CSFRα in solution, antibody (human IgG4) titrated; blocked ligand GM-CSF; x axis numbered 0-4 without label or unit

binding, binds:
B1, B2, B3, B4, B5, B6

Molecular target: T1, Bavih-GMRa (biotinylated Avi-10His-GMRa(ECD)) (human)
Assay: competitive ELISA as in Example 1: GM-CSF coated, biotinylated GM-CSFRα in solution, antibody (human IgG4) titrated; blocked ligand GM-CSF; x axis 'Log Ab concentration', no unit

binding, binds:
B7, B8, B6

Molecular target: T2, human GM-CSFRα-6His
Assay: ELISA on human GM-CSFRα, antibodies as human IgG1; x axis 'Log Ab concentration', no unit

binding, binds:
B9, B10

Molecular target: cynomolgus monkey GM-CSFRα-6His (cynomolgus monkey)
Assay: ELISA on cynomolgus monkey GM-CSFRα (mGMRah), antibodies as human IgG4; x axis 'Log Ab concentration', no unit

binding, binds:
B7, B8, B5, B11, B6

Molecular target: cynomolgus monkey GM-CSFRα-6His (cynomolgus monkey)
Assay: ELISA, IgG4 on mGMRah

binding, binds:
B7, B8, B5, B11, B6

Molecular target: T2, human GM-CSFRα-6His
Assay: ELISA, IgG1 on human GM-CSFRα

binding, binds:
B10
